These are yes or no findings as the source states them, for the method shown. Some binding calls cover weakened binding; strength is not graded here.
Key:
[1] = target: PhoA_(2–21) (PhoA signal peptide) [phosphatase: P00634]; assay: peptide or protein array; CelluSpot array of cellulose-bound peptides on glass slides (8-residue peptides overlapping by seven); 50 nM His-DnaK in DB buffer (25 mM Tris-HCl pH 7.5, 150 mM NaCl, 10 mM KCl, 0.05% Tween 20, 5% sucrose) overnight at 4 °C; detected with HRP-conjugated anti-His antibody; both purified
[2] = target: T1, CsgA_(21–42) (CsgG-recognition sequence) (E. coli); assay: SPR; BIAcore T200; CsgA peptides immobilised on a CM7 chip by EDC/NHS coupling; DnaK 50–1000 nM as analyte, single-cycle kinetics; 25 °C; HBS-DM buffer (10 mM HEPES pH 7.4, 150 mM NaCl, 5 mM MgCl2, 1% dimethylsulfoxide); 30 μL min^−1; fit with a 1:1 binding mode; both purified
T1 sequence (peptide): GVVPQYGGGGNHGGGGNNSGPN

Sequences of proteins named here, by UniProt entry; tags and fusion partners are left off.
UniProt P0A6Y8: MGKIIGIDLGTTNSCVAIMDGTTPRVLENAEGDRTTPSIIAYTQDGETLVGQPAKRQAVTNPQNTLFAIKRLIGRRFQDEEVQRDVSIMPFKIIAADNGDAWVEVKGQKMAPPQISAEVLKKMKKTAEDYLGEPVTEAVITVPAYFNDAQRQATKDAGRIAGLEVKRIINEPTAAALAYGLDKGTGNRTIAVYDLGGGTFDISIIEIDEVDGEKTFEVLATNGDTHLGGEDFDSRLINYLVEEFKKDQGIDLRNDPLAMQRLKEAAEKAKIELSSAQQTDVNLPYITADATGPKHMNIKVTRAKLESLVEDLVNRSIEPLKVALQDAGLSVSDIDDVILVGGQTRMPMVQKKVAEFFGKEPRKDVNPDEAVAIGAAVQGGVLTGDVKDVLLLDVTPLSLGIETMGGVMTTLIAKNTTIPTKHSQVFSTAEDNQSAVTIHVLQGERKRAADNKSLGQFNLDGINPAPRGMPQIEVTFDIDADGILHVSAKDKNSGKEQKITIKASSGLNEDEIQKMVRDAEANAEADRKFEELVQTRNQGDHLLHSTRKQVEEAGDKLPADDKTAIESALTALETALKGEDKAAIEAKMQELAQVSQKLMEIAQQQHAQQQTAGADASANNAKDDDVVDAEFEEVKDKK

With “N-terminal His-tagged DnaK (His-DnaK) (from UniProt P0A6Y8 1-638)” the binding [1] was “binds” and the binding [2] was “no binding (tested: 1000 nM (DnaK 50–1000 nM))”.

Reference: PMC6123696
